{"source": "patent US7160989B2", "about": "“Antibodies that recognize and bind phosphorylated human androgen receptor and methods of using same” (New York University, priority 2003, dated 2007)", "key": {"[1]": {"biological_target": "T1, AR S213 phosphorylation (Homo sapiens, UniProt P10275)", "T1 sequence (P10275 1-920)": "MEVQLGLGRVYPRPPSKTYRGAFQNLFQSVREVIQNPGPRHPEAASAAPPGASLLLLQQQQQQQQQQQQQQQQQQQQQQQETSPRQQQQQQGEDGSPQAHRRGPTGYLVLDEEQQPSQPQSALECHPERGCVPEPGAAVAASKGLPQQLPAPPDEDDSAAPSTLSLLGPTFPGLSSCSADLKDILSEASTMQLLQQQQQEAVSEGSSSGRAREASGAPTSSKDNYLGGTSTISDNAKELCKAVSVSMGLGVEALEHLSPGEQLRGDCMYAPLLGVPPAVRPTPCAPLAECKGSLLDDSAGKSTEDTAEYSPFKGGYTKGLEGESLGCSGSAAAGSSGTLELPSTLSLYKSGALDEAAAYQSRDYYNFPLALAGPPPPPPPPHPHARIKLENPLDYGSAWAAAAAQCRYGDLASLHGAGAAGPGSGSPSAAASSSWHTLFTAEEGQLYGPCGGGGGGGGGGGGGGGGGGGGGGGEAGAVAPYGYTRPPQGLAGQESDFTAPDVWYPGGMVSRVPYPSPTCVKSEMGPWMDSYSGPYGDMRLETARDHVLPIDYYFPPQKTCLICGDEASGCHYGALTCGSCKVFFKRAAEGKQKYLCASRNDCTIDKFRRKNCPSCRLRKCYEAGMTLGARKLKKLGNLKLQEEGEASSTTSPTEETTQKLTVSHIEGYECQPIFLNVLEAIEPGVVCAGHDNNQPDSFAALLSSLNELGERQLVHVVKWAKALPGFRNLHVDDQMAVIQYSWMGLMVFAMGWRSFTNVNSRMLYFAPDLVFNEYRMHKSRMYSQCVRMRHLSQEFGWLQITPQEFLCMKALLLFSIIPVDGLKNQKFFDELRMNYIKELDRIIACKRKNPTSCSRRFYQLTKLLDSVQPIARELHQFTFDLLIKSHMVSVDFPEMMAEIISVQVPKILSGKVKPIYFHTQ", "experiment": "Immunoblot of AR S213 phosphorylation in 293 cells transfected with wild type AR", "assay_type": "cell-based", "settings": "HEK 293 cells, WT AR, pre-treated with LY for 15 minutes, then R1881 2 hours; FIG. 4A"}, "[2]": {"system": "total AR", "experiment": "Immunoblot of total AR in transfected HEK 293 cells", "assay_type": "cell-based, human", "settings": "FIG. 4A"}, "[3]": {"system": "phospho-Akt serine 473", "experiment": "Immunoblot of phospho-Akt serine 473 in transfected HEK 293 cells", "assay_type": "cell-based, human", "settings": "FIG. 4A P-Akt panel, lanes 2 and 3"}}, "note": "At least one structure is not confirmed: it was looked up by name or label, or the drawing left a doubt.", "data": [{"molecule": "O=c1cc(N2CCOCC2)oc2c(-c3ccccc3)cccc12", "note": "[LY294002]", "values": [{"measurement": "Effect on AR S213 phosphorylation in cells treated with R1881", "setting": "[1]", "result": "inhibit AR S213 phosphorylation"}, {"measurement": "Effect on total AR levels", "setting": "[2]", "result": "do not change"}, {"measurement": "Effect on endogenous levels of Akt phosphorylation", "setting": "[3]", "result": "decreases"}]}]}
